Amino acid sequences for entries named in this document (tags omitted).
UniProt Q0JBA9, entry or part of it: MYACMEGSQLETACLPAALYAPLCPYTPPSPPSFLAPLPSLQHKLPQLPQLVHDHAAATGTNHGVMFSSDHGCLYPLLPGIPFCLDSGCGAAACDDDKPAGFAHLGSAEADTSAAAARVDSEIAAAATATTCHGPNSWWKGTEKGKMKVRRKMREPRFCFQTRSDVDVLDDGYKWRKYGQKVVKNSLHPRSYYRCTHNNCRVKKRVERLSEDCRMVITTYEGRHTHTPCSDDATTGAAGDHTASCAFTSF

The other results are listed elsewhere or left out.
The sequences below were run against OsWRKY34 (Oryza sativa, UniProt Q0JBA9 1-250) (assay: protein-binding microarray (RPBM); PBS, 2% BSA, 51.3 ng/ul salmon testes DNA, 50 uM zinc acetate, 200 nM TF, 25 C, 1 h; high values mean tight binding). Details: protein: recombinant; tags: N-terminal polyhistidine and DsRed monomer fusion (pET32a); label: CyDye5-dUTP incorporated in the synthesized complementary strand; 3' TTTTT single-stranded linker to array surface; dsDNA, one strand shown.
Outline: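 For the binding signal, per-feature fluorescence intensity was read in arbitrary units on an Axon 4000B scanner. Before scanning, a 2% BSA-blocked custom Agilent array made double-stranded with Cy5-dUTP was washed after 1 h at 25 °C with 200 nM protein and 50 µM zinc acetate. The proteins were Ni–NTA-purified transcription factors with N-terminal polyhistidine and DsRed fusions, expressed in E. coli BL21-CodonPlus.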
With “CGTGCCATCGTTGCCTTCCCGCTGTTCTCGCCGTCGCCGTCGGAGTCACCTAGTGCAG” the binding signal was 9510 fluorescence intensity (a.u.). With “CTATTTGTGTCTTGTGTACTTCAACGTCTTCCTCTTATGACGGAGTCACCTAGTGCAG” the binding signal was 10800 fluorescence intensity (a.u.). In the case of “TTCCCTCACATCCGTGCCCTCTCCTTCTCTCTCTGTGTCTCGGAGTCACCTAGTGCAG”, the binding signal is reported as 8110 fluorescence intensity (a.u.). With “CACTAGTCATAGACTCTTTTCTTAGCCAAAGTTTACCACACGGAGTCACCTAGTGCAG” the binding signal was 8730 fluorescence intensity (a.u.). “TTTTTGTTTTATTCCCAATCCATCTCTCATTGTCAAGAGACGGAGTCACCTAGTGCAG” was tested, and the binding signal was 8450 fluorescence intensity (a.u.). “TTTTATGCCGATATACCATGGCTGTGTGACCATATCTCAACGGAGTCACCTAGTGCAG” was tested, and the binding signal was 8890 fluorescence intensity (a.u.). For “TCTATCTTGTGTTGACTCTGTTAGTTTGCAACTTTTCATACGGAGTCACCTAGTGCAG”, the binding signal was 10400 fluorescence intensity (a.u.). “GCCGCATGGTGGTGCTGGTTGGGGTGGTGGTGGTGGCGGCCGGAGTCACCTAGTGCAG” was tested, and the binding signal was 14800 fluorescence intensity (a.u.). “ATAGCGCTTTCGTCTCTCCTGACAGTATCTAGAGATACCGCGGAGTCACCTAGTGCAG” was tested, and the binding signal was 8650 fluorescence intensity (a.u.). With “GGACCTTCGGTGTACTTTTTTCTTAGTTGCGATCCAGTTCCGGAGTCACCTAGTGCAG” the binding signal was 9540 fluorescence intensity (a.u.). With “GCGGTGGAGGCGGTGGCGGTGGTGGCGGTGGTGGAGGATGCGGAGTCACCTAGTGCAG” the binding signal was 21200 fluorescence intensity (a.u.). With “AAGAGTTTCTACCTTTGATGTTTGCACTCAGACTGTCCTTCGGAGTCACCTAGTGCAG” the binding signal was 11200 fluorescence intensity (a.u.). “TGAGGGTATTATAGACATTTCTACTTCTCTTGTACATATTCGGAGTCACCTAGTGCAG” was tested, and the binding signal was 10500 fluorescence intensity (a.u.). For “ATTAGTCATCGTCTCTCTCGTACGTGACACCGCCGCTATGCGGAGTCACCTAGTGCAG”, the binding signal was 8910 fluorescence intensity (a.u.). For “TATTTTTCTCTGCCACTTTTGTTTCGCGGCCTGATTAGCTCGGAGTCACCTAGTGCAG”, the binding signal was 11000 fluorescence intensity (a.u.). In the case of “CACCATTTTCTTGCTCCTCATCTTCTTCACCACAACCATACGGAGTCACCTAGTGCAG”, the binding signal is reported as 8500 fluorescence intensity (a.u.). With “ACGCGCACAACAACACACACAACCCAACCCAACCCCAGCGCGGAGTCACCTAGTGCAG” the binding signal was 8130 fluorescence intensity (a.u.). In the case of “AGGACACCACCGGCCTTTGTTGTTTAACTGACAGTATTAACGGAGTCACCTAGTGCAG”, the binding signal is reported as 8150 fluorescence intensity (a.u.). For “CGTCACGGGTACAAAATCGTCCCCATATCCACACTCACACCGGAGTCACCTAGTGCAG”, the binding signal was 8290 fluorescence intensity (a.u.). For “CGACCGCCATTGCCTCGCCGTCTTCCGCCCCGCCCCGCCCCGGAGTCACCTAGTGCAG”, the binding signal was 14800 fluorescence intensity (a.u.). For “GGACGGACGGGATAACACCCATGGGCCCACTTGTCATTGACGGAGTCACCTAGTGCAG”, the binding signal was 8850 fluorescence intensity (a.u.). “ATTCACATTTGAACACTTAATACGGTCACCCAAATGCTTACGGAGTCACCTAGTGCAG” was tested, and the binding signal was 8030 fluorescence intensity (a.u.). “GTGTGCTAATTAATTGTTCATGATCTCAAACCCTTTATCTCGGAGTCACCTAGTGCAG” was tested, and the binding signal was 11300 fluorescence intensity (a.u.). In the case of “TTTTCTATGGTTAGTTCTTGTGGGTTCCTAAGTGTGAAAACGGAGTCACCTAGTGCAG”, the binding signal is reported as 10900 fluorescence intensity (a.u.). In the case of “CCACCACATCCCAGCCGCCACATCAGACGCAGAAAATCGCCGGAGTCACCTAGTGCAG”, the binding signal is reported as 8520 fluorescence intensity (a.u.). “ACCTCTTCCATTTCCATCTTTCTGTTTCTGATTCATTAAACGGAGTCACCTAGTGCAG” was tested, and the binding signal was 8070 fluorescence intensity (a.u.). With “GCACAATTTTTCAGAACTATTCTGTTCCGCTTCAGTTTTTCGGAGTCACCTAGTGCAG” the binding signal was 9620 fluorescence intensity (a.u.). “GCACTAATCCCAGTGCTCTGCTGCCGCGCTTCGTCGCCGCCGGAGTCACCTAGTGCAG” was tested, and the binding signal was 8560 fluorescence intensity (a.u.). For “GGCGTCTACTTTGCCATTGCAATTCCCATCTGCGAGAAAACGGAGTCACCTAGTGCAG”, the binding signal was 12900 fluorescence intensity (a.u.). With “GACGAAATTCCGGCCGACGCGCGACCCCATACATCTTGGACGGAGTCACCTAGTGCAG” the binding signal was 9510 fluorescence intensity (a.u.). “TCTACACCTATTGTGATGTGGAATAATTCTCCTCAAACCTCGGAGTCACCTAGTGCAG” was tested, and the binding signal was 8080 fluorescence intensity (a.u.). “TCATCTTCGATACTGATATTACCAAATTTAGTCGTTAACACGGAGTCACCTAGTGCAG” was tested, and the binding signal was 8100 fluorescence intensity (a.u.). With “ACGGTAGGAGCTGCAGCGGTCGGGGTGGGAGCAGGGGTCGCGGAGTCACCTAGTGCAG” the binding signal was 9690 fluorescence intensity (a.u.). For “TAATCATGCTGCCGTCTCTGAATTTGCTGTGCTGCCGTCTCGGAGTCACCTAGTGCAG”, the binding signal was 8740 fluorescence intensity (a.u.). “CGTGCCACCTCTTGTCCCAGATCCATCCCAGATTTTCAAACGGAGTCACCTAGTGCAG” was tested, and the binding signal was 9560 fluorescence intensity (a.u.). In the case of “CCCACGACTCCCCACGCAATCTCACTGCCACTGCATCTTCCGGAGTCACCTAGTGCAG”, the binding signal is reported as 8170 fluorescence intensity (a.u.). For “ATCTGTAGCCCGTTGCTTTTCTCTCTCTTCTTTTATCTCCCGGAGTCACCTAGTGCAG”, the binding signal was 13600 fluorescence intensity (a.u.). In the case of “ACTCCACTGATCCACTCCATCGCCAATTCGCCGTATCAACCGGAGTCACCTAGTGCAG”, the binding signal is reported as 10800 fluorescence intensity (a.u.). In the case of “GATGTAAGTGGGGTGGATAAGTGGTTTTTTTTCCTGATAGCGGAGTCACCTAGTGCAG”, the binding signal is reported as 8040 fluorescence intensity (a.u.). With “GGCCCTTTCGCGTGGTCGTTTGTTGGCATCTATTATCCCACGGAGTCACCTAGTGCAG” the binding signal was 12900 fluorescence intensity (a.u.). With “TTTAGGGTAGTCGGACTTTTTTTTTTTGCTTTTTCACTATCGGAGTCACCTAGTGCAG” the binding signal was 10400 fluorescence intensity (a.u.). “CCTCTTCATCCAGTTCCACCGGCTGGCTTATGTATATTTCCGGAGTCACCTAGTGCAG” was tested, and the binding signal was 9080 fluorescence intensity (a.u.).
